Measurements published in article PMC9170038.

Molecular target: T1, MS2 coat protein, dlFG mutant del68-81insG (Escherichia phage MS2) (UniProt P03612)
T1 sequence (looked up, limits assumed): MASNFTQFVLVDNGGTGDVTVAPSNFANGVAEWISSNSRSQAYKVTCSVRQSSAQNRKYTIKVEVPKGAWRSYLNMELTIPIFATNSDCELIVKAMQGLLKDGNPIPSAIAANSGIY
Experiment: binding assay
Details: 4 mM Mg2+, RNA-MaP array, 100 mM Tris-HCl pH 7.5, 80 mM KCl, 4 mM MgCl2, 0.1 mg/mL BSA, 1 mM DTT, 0.01 mg/mL yeast tRNA, 0.01% Tween-20, protein 1.5 nM to 3 uM, 37 C (Table S3), purified recombinant protein

Row | Sequence | Kd (no ligand) | Kd (FMN 200 uM)
1 | GCCAGACAUGAGGAUCACCCAUGUAGCGAUACCAGCUCUGUUGUGAGCCCUUGGCAGCGCACUGGCAUCGCGGGUGAUCCUGCAU [Eterna 7619812 (Same State - Theophylline A)] | > 3000 nM | 
2 | GCUCAUAUCACAGGAUAUGGCCAGCAAAUUUGGCCAGAAGGGUGAUUCAUAUUAAAAUCACAUGAGGAUCACCCAUGUACGGCA [Eterna 6148645 (Same State NG 1)] | > 3000 nM | 
3 | GGUUGGCGAGGAUAUACAUGAGGAUCACCCAUGUGGUCCUGAGGCUGAUCAAGCCUAUGUAGAAGGCGCAAAUC [Eterna 6023507 (Exclusion 3)] |  | > 3000 nM
4 | AAGGGACAUGAGGAUCACCCAUGUUCGAAAGACGAUGGAUCGCAGGAUAUCCAGUGUUAGAGAGAGGAGAAGGGUGAUCCUAUU [Eterna 6149052 (Same State NG 3)] | > 3000 nM | 
5 | UACCGCGACAACACGGUAUCACAUGAGGAUCACCCAUGUUCACAGGAUAUGCGAUAGCCAACGAAGCAGAAGGGUGAUUACUUA [Eterna 6148996 (Same State NG 3)] | > 3000 nM | 
6 | GGCUGUCUCGCAGGAUAUGCUGAUCAGAAACUAGCAGAAGGGUGAUCCAGUCGAGGUUUGACAUGAGGAUCACCCAUGUGGAGU [Eterna 6148594 (Same State NG 1)] | > 3000 nM | 
7 | AUAAAACAAAACCACACAUGAGGAUCACCCAUGUCAAGAUUACAGGAUAUCCAGCAGAGAUGCAUGGAGAAGGGUGAUCCCAAA [Eterna 6149015 (Same State NG 3)] | > 3000 nM | 
8 | UUGGCGCGAUCCUUGGUCUCACAUGAGGAUCACCCAUGUAGAGAGGAUAUGCAUAGGGCCCAAUGGCAGAAGGCUCUACAUGAG [Eterna 6148357 (Exclusion NG 3)] | > 3000 nM | 
9 | GUGAACAUGAGGAUCACCCAUGUAGCUCACUGCCAGUGGCUACAGGAUAUAGCACCUCGAGGGUGCUAGAAGGGUGGCCUAGAA [Eterna 6425047 (Same State NG 3)] |  | > 3000 nM
10 | GGCUGGUAGCUAGGAUAUGGGCGGUCACAUGAGGAUCACCCAUGUCAACAUCAAAACCAGAUUAACCAGAAGGAGCUGCGGGUU [Eterna 6148739 (Same State NG 2)] | > 3000 nM | 
11 | CACUCGUGUCUAGGAUAUGAGUGACAAGCGCGAGAUUUUCUCGCCGCUAGCUCAGAAGGAGACAUGAGGAUCACCCAUGUAAGG [Eterna 6430053 (Small Loop Exclusion NG 1)] |  | > 3000 nM
12 | GCGCAUGUCACAGGAUAUCCCAUAGUGUACAUGAGGAUCACCCAUGUACUGCAAUGCAGACACAAGGAGAAGGGUGAGACUCGU [Eterna 6148835 (Same State NG 2)] |  | > 3000 nM
13 | CAUGAUCUUCGGAUCAUGUACAUGAGGAUCACCCAUGUGACGAGUUGAUCCUCAAACAAGCUUUUUGCUCGUCUUAU [Eterna 10629 (Sensor v3, turn-off variant 1)] | > 3000 nM | 

Tags and fusion partners may be left off the protein sequences shown.
